For at least one entry, the source does not settle the construct or the ends of the probe. Results from cells or extracts need not show a direct contact. For part of these data: A negative result means that nothing was seen under these conditions. For part of these data: At least one verdict rests on a figure or table, not on a statement of the authors.
What was measured:
[1] = target: LEF-1 (endogenous, N2a-m nuclear extract) (UniProt P27782); assay: EMSA supershift; details: anti-LEF-1 antibody, EMSA: 20 ug nuclear protein, 30 min RT, 60-65 mM KCl final, poly dIdC 1 mg/ml, CHAPS 20%, 4.5% acrylamide gel, extract buffer 20 mM Tris pH 7.5, 400 mM NaCl, protein in an extract
[2] = target: LEF-1 (endogenous, N2a-m nuclear extract) (UniProt P27782); assay: competition with a labelled probe; details: LEF-1 identity of the complex from the supershift, EMSA: 20 ug nuclear protein, 30 min RT, 60-65 mM KCl final, poly dIdC 1 mg/ml, CHAPS 20%, 4.5% acrylamide gel, extract buffer 20 mM Tris pH 7.5, 400 mM NaCl, protein in an extract

Chains of the proteins cited; added tags and fusions are not shown.
UniProt P27782, whole entry: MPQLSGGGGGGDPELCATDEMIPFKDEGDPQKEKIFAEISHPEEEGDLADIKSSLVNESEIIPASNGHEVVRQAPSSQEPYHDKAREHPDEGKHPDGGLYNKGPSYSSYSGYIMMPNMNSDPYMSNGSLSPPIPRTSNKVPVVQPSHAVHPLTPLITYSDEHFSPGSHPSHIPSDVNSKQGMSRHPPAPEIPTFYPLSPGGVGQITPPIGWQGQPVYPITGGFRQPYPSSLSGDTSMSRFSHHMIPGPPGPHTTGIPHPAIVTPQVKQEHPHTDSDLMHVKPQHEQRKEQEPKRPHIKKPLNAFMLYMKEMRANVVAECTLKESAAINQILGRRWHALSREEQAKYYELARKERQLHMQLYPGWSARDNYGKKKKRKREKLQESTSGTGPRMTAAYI

Sequence | binding result [1] | binding result ([2]; unlabelled wt competitor, 20 and 100 ng) | binding result ([2]; mutant competitor did not compete, label: unlabelled competitor)
GTCGCCCTTTGATCTTACC / GTCGGGTAAGATCAAAGGG [TCF/LEF wt oligonucleotide] | binds | binds | 
GTCGCCCTTTGGCCTTACC / GTCGGGTAAGGCCAAAGGG [TCF/LEF mutant oligonucleotide] |  |  | no binding

Source: PMC2664482
